This assay can be described thus: qHTS Assay to Find Inhibitors of Chronic Active B-Cell Receptor Signaling. As to conditions: ABC-DLBCL IkBa-CBG/CBR reporter, luminescence ratio (green luciferase fused to IkBa over red control in TMD8 lymphoma cells), 4 h. The method in brief: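 TMD8 ABC-DLBCL cells carrying doxycycline-inducible green luciferase fused to IkappaBalpha plus unfused red luciferase were exposed to compounds (up to 46 uM) for 4 hrs at 37C. Activity came from the overlap-corrected green/red luminescence ratio.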

[1] abbreviates: measured here: CBR red luminescence, cell number.
Where [2] appears, read: measured here: IkBa-CBG green luminescence.

This is one part of the list. These are further read-outs of the screen, such as a control signal, another cell line or another target. No call is given for them. Compounds called inactive in the main read-out are mostly missing here. Potencies come from curve fits of mixed quality, noted in brackets.

As for `COc1ccc(C(C#N)N2N=C(C)CC2c2ccccc2)cc1` (stereo not drawn), under setting [1], the AC50 was 3.55 µM [rising, partial curve].
Still for that read-out and setting: the figure for `CCOC(=O)c1c(S(=O)(=O)N2CCCC(C(=O)Nc3ccc(C)cn3)C2)c(C)n(C)c1C` (stereo not drawn) is 2.51 µM [falling, partial curve].
On to `CC1CC(=O)C2=C(C1)Nc1ccccc1SC2c1ccc(F)cc1` (stereo not drawn), for which the half-maximal activity concentration (AC50) was 20.6 µM [falling, partial curve] under setting [1] and 18.4 µM [rising, partial curve, poor fit] under setting [2].
With `O=C(O)CCC1COc2ccccc2O1` (stereo not drawn), the concentration at half-maximal activity (AC50) under setting [1] was 3.26 µM [rising, partial curve, poor fit].
For `O=C1c2ccccc2C(=O)N1c1cccc(-c2csc(Nc3ccc4c(c3)OCO4)n2)c1`, under setting [1], the concentration at half-maximal activity (AC50) was 29.1 µM [rising, single point].
Same read-out and setting: the figure for `Cc1ccc(CNc2ccc(Cl)cc2[N+](=O)[O-])cc1` is 3.16 µM [rising, full curve, poor fit].
On the same count and under the same terms, the same measure for `Cc1ccc(C2(C)NC(=O)N(CC(=O)N3CCN(S(=O)(=O)c4ccc(Cl)s4)CC3)C2=O)cc1` (stereo not drawn): 18.4 µM [falling, partial curve]; for `COC(=O)c1ccc(-c2noc(CN(C)CC3CCCCO3)n2)cc1` (stereo not drawn): 35.5 µM [falling, partial curve, poor fit]; for `O=C(N/N=C/C=C/c1ccccc1)c1ccccc1Br`: 5.01 µM [falling, partial curve, poor fit].
With `CCOC(=O)C(C)Sc1nc2c([nH]c3ccccc32)c(=O)n1C` (stereo not drawn), the AC50 under setting [1] was 0.651 µM [falling, full curve, poor fit].
As for `COc1ccc(-c2cc(C3CC3)nc3sc(C#N)c(N)c23)cc1`, the AC50 under setting [1] was 14.6 µM [falling, single point].
Same read-out and setting: the same measure for `CCNC(=O)CN(CCc1ccccc1)S(C)(=O)=O`: 0.259 µM [rising, full curve, poor fit].
The same measure, in the same setting: the same measure for `CCCCCN(C(=O)CSc1n[nH]c(-c2ccc(C)cc2)n1)c1c(N)n(CCCC)c(=O)[nH]c1=O`: 29.1 µM [falling, single point].
On the same count and under the same terms, the figure for `CCOCC(O)CNC(=O)c1ccc2nc(Cc3ccc(OC)c(OC)c3)oc2c1` (stereo not drawn) is 17.8 µM [falling, single point]; for `O=C(NC1CC1)C1=C[C@@H](c2coc3ccccc3c2=O)C[C@@H](OCc2ccc(CO)cc2)O1` it is 8.91 µM [rising, partial curve, poor fit].
As to `CCOC(=O)C(=O)N(Nc1ccc(C)cc1)c1ccc(C)cc1`, the AC50 under setting [1] is 44.7 µM [rising, partial curve, poor fit].
In the case of `CCn1nc(NC(=O)c2ccco2)c2cc3cc(C)ccc3nc21`, the concentration at half-maximal activity (AC50) under setting [1] is 3.55 µM [falling, partial curve].
Same read-out and setting: the same measure for `N#Cc1cc2c(nc1SCc1ccccc1)CCCC2`: 9.2 µM [rising, single point].
On the same count and under the same terms, the figure for `CCOc1ccccc1N(CC(=O)NC1CCCCC1)S(=O)(=O)c1ccc(C)cc1` is 0.794 µM [falling, full curve, poor fit]; for `O=C(/C=C/c1ccccc1)Nc1scc(-c2ccccc2)c1C(=O)O` it is 17.8 µM [falling, partial curve, poor fit].
For `C=CCSc1nc(C)cc2c1C(=O)OC2`, the AC50 runs as follows: under setting [1], 2.24 µM [rising, partial curve, poor fit]; under setting [2], 12.6 µM [falling, partial curve].
As for `O=C(CCN1CCN(c2ccccc2)CC1)NNC(=O)Cc1ccc(Br)cc1`, under setting [1], the AC50 is 2.59 µM [rising, single point].
With `Cc1nn(C)cc1/C=N\NC(=O)c1ccc2c(c1)c(C)c(C)n2Cc1ccccc1`, under setting [1], the concentration at half-maximal activity (AC50) was 13 µM [rising, partial curve].
Same read-out and setting: the figure for `CCN(CC)C(c1ccc(C)cc1)c1nnnn1C1CCCCC1` (stereo not drawn) is 0.461 µM [falling, partial curve, poor fit]; for `S=C1Nc2ccccc2Sc2ccc(Cl)cc21` it is 10.3 µM [rising, partial curve, poor fit]; for `Oc1cccc(/C=N/Nc2cccc3cccnc23)c1` it is 0.562 µM [rising, full curve, poor fit].
The same measure, in the same setting: the figure for `Cc1ccc2cc(NC(=O)c3ccccc3C)ccc2n1` is 11.2 µM [falling, partial curve, poor fit].
As for `CCc1ccc(-c2nn(-c3ccccc3)cc2C2SCC(=O)N2Cc2ccco2)cc1` (stereo not drawn), the AC50 was 20.6 µM [falling, single point] under setting [1] and 25.9 µM [rising, partial curve, poor fit] under setting [2].
Take `CCOCCCNCc1cccc(OCc2ccc(F)cc2)c1`: the AC50 under setting [1] is 2.31 µM [rising, partial curve, poor fit].
Still for that read-out and setting: the figure for `COc1ccc(-c2cn3cccnc3n2)cc1NC(=O)c1ccc(Br)o1` is 35.5 µM [falling, single point]; for `CCNc1c(C(=O)O)ccc2c1C(=O)c1ccccc1C2=O` it is 0.082 µM [rising, full curve, poor fit].
Take `COc1ccccc1OCC(=O)Nc1c2c(nn1-c1ccc(F)cc1)CS(=O)(=O)C2`: the half-maximal activity concentration (AC50) under setting [1] is 5.62 µM [rising, single point].
Same read-out and setting: the same measure for `CCOCCCNC(=S)N1CCCN(c2nc3cc(C)c(C)cc3cc2C#N)CC1`: 35.5 µM [falling, single point]; for `COc1cc(OC)c(OC)cc1CNC(=O)c1cc(=O)c2ccccc2o1`: 17.8 µM [rising, single point].
With `c1ccc2c(CSc3ncnc4nc[nH]c34)cccc2c1`, the AC50 by setting is: under setting [1], 7.08 µM [rising, partial curve]; under setting [2], 10 µM [falling, partial curve].
As to `CCSc1cc(C)nc2c(-c3ccccc3)cnn12`, the AC50 under setting [1] is 15.8 µM [falling, single point].
On the same count and under the same terms, the same measure for `O=C(COC(=O)c1cc(S(=O)(=O)N2CCOCC2)c(Cl)cc1Cl)c1ccc[nH]1`: 25.9 µM [rising, single point].
Same read-out and setting: the same measure for `CCOC(=O)/C(=N\Nc1ccc(Cl)cc1)c1csc(Nc2ccccc2)n1`: 14.6 µM [rising, partial curve, poor fit]; for `O=C(C1CCN(S(=O)(=O)c2ccccc2)CC1)N1CCCCCC1`: 3.55 µM [falling, partial curve, poor fit].

By AC50 is commonly meant the concentration at which the activity in the assay is half-maximal.
